Earlier results, collected in patent US20100255598A1, “Medication Adherence Monitoring System” (priority 2007, published 2010).

Assays:
[1] = endogenous metabolism; cited from earlier work
[2] = humans; cited from earlier work

In the case of `CCO` [Ethanol, ethanol], the “mean concentrations in human breath” value [1] is given as 27-153 ppb and the “endogenous blood plasma concentration” value [2] is given as 4 to 33 µM.
In the case of `CO` [Methanol, methanol], the “endogenous blood plasma concentration” value [2] is given as 12.5 to 25 µM.
In the case of `CC=O` [acetaldehyde], the “mean concentrations in human breath” value [1] is given as 2-5 ppb.
In the case of `CC(C)=O` [acetone], the “mean concentrations in human breath” value [1] is listed as 293-870 ppb.
For `N` [ammonia], the “mean concentrations in human breath” value [1] is given as 422-2389 ppb.
For `C=CC(=C)C` [isoprene], the “mean concentrations in human breath” value [1] is given as 55-121 ppb.
